Laboratory results published in PubChem BioAssay AID1508600 (Functional Genomics Laboratory (NCATS/FGL), 2020).
Hit rate of the full screen: of about 53,000 sequences, about 3,700 (7%) were called active.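 Rule for the calls: active = gene knockdowns whose robust z-score for IL-1 alpha signal is at least 2 or at most -2, so actives lie on both sides; inactive = the rest.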 This is one part of the list.

assay: Components of the Cytosolic LPS Sensing Pathway: Gene Identification via Genome-wide siRNA Screen; details: RAW264.7 macrophages, IL-1a HTRF, actives lie on both sides, screened at 100 nM (by protocol), cells primed 5 h with Pam3CSK4 first;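 note: robust z of the log signal after scaling to non-targeting control siRNA wells of the plate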
How it was run: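 RAW264.7 mouse macrophages reverse-transfected with single siRNAs (100 nM final) for 48h, primed with Pam3CSK4 for 5 hours, then transfected with LipidA for 24 hour. Supernatant IL-1a read by HTRF; values normalized to negative-control median, log-transformed robust z-scores.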

Row | Sequence | z-score
1 | GGAACUGAAGUUGAAAUAATT against Pkhd1l1 | inactive: -0.751
2 | GGAAAAACAACCAGAUUGATT against Ttc39c | inactive: -0.551
3 | CCCUCUGGAUGGAUCUUCATT against Fbp2 | inactive: -1.3
4 | GCUGUUUGAGGUCAUUCAUTT against Urb2 | active: 4.71
5 | GGGUAGUGGUGAGCAAGACTT against Wnt10b | inactive: 1.42
6 | CCUCCAGUUCAGAAUUCUATT against Surf4 | inactive: 0.634
7 | GCCCUUACCAUGUGUCCUUTT against Olfr1346 | inactive: 0.939
8 | GGGCAAGUUUUCUACAUUUTT against Cntnap2 | inactive: 1.16
9 | GUACAUGAGAGACCCUGAUTT against Lsm7 | inactive: 0.337
10 | GCUCGAGAAGAGUUUGUUATT against 1700030J22Rik | inactive: 0.933
11 | CCCUAAAGCUUUAUAGUGCTT against Usp17lb | inactive: 1.39
12 | GGUGAUUGAACAGAGCUACTT against Slc2a4 | inactive: -0.937
13 | GGAAGUGAUAUCAUCGUAGTT against Dnajb11 | inactive: -1.67
14 | GGUCUUUCUGACGCAGACUTT against Isg15 | inactive: 0.64
15 | GGUAAAUGUCUGCUCUGAGTT against Selenok | active: -2.53
16 | GGAGACUAUUACCAUACUGTT against P4ha2 | inactive: -0.991
17 | GCAUGGUAUUUCAUAAAGCTT against Inka2 | inactive: -0.0246
18 | GGCAAGGAGGAUGACAAAATT against Rnf113a2 | inactive: 0.416
19 | CCUCCAGGCUAUUUAUAGUTT against Unc119 | inactive: -0.14
20 | CCCGGUUGAGAAGAUAGACTT against Sod3 | inactive: 0.21
21 | GGGAAGAUCAGGGAUGCUCTT against Dnajc19 | inactive: -0.991
22 | GCCGCUUAUUCACAGAUGUTT against Klhl24 | inactive: 0.399

Taken from above.
GGAACUGAAGUUGAAAUAATT against Pkhd1l1 – z-score: inactive: -0.751
GGAAAAACAACCAGAUUGATT against Ttc39c – z-score: inactive: -0.551

The listing continues.

Row | Sequence | z-score
23 | GCACCAUAUCUGAGAACUUTT against Prl5a1 | inactive: -0.254
24 | CCUCUCCUUACAACUGAUGTT against Zfp286 | inactive: -0.167
25 | GGAGAAAGGAAAACUCUUUTT against Pcdhga8 | inactive: 0.848
26 | GGCAGAUCUUCUUUGGAAATT against Ugt2b38 | inactive: 0.757
27 | GGCACUUGCUUUGGAUAAATT against Serpinb6a | inactive: -0.742
28 | GCCACCCUACCAUAGCAAATT against Sgip1 | inactive: 0.675
29 | CGCAACCAUCAUCGUGCUCTT against Olfr282 | inactive: 0.125
30 | GCUAACUGAUACUCCACCATT against 2810006K23Rik | inactive: 0.573
31 | GGUAGUUGAGGUUUUAUAGTT against Gstcd | inactive: -0.877
32 | GGAAGAAGUCAAACCAUAUTT against Ccl25 | inactive: -1.28
33 | GGAUUUCUCGGAAGUCGAGTT against Cd3e | inactive: 0.517
34 | GGGAAUGUGUUCUUUAUCATT against Commd9 | inactive: 1.02
35 | CCUAAAUCUCACCUCCACATT against Gp9 | inactive: -0.83
36 | GGAUGUGGAAGCAGUUUGUTT against Zfp101 | inactive: 1.32
37 | GGCAUCUUAAAAUUGACUGTT against Olfr701 | inactive: -0.476
38 | GGAGGAUGAAGGCCAUUCATT against Hnrnpd | inactive: 1.54
39 | GGAUCUCUUAGGUAUCUUATT against Nlrp14 | inactive: 1.45
40 | GGGUAAUCAGAUUGAAAGATT against Dnah5 | inactive: 0.0753
41 | GCCACGAAGGUACUAUGUATT against Tbce | inactive: 0.176
42 | GGUAGAAUACCUUCAGAUUTT against Ercc4 | active: 2.81
43 | GGCGGAGUAGACUUCAUAUTT against Olfr593 | inactive: 0.363
44 | UAUGUUGGAGCCUAUGUUCTT against Cacfd1 | inactive: -0.231

Row | Sequence | z-score
45 | GCCGUUAGAAACAAAGUCGTT against Taf3 | active: -2.48
46 | CCGGGUAGUCUUUUUGGUGTT against 9130019O22Rik | inactive: -1.72
47 | GCAUAAUUCUUUCUUCGCATT against Krtap14 | inactive: -0.638
48 | GGAAGAUGACCUCUACAUCTT against Aldh3a1 | inactive: -0.6
49 | GGUAUUGAAAAGGUGAAGUTT against Lpp | inactive: -0.335
50 | GGGACUUGAAGAUAAUCAATT against Dnajc10 | inactive: 1.93
51 | CCCAGUUAUCCUGAAAAGUTT against Ears2 | inactive: 0.526
52 | GGAAGUUGUAGAAGAAACUTT against Tcp11l2 | inactive: -0.156
53 | GGCCAUGACAUCACAGAACTT against Eif3f | inactive: -0.144
54 | GGUACACAUAACACAGAUATT against Rpl23 | inactive: 0.942
55 | GGCUUAAACGAUUUUUCCATT against Elp3 | inactive: 1.63
56 | GGGAUACUUUCUUCGAGGATT against Soga3 | active: -2.36
57 | GGAACAUUGAUGGAAUUGGTT against Sec61a2 | inactive: -0.0657
58 | GGAAGUCAUUUUUUCCAAGTT against Msantd4 | inactive: 1.12
59 | CCAGUGAAUGACUUCACUCTT against Rpp21 | inactive: 0.0309
60 | GGAGGAAAUCAGAGAGAGGTT against Kank1 | inactive: 0.00353
61 | CCUAUAAUGCUUACAGGAUTT against Olfr477 | inactive: 0.352
62 | GCACGCAUUAAAUUCAAAGTT against Magea9-ps | inactive: -0.811
63 | CGGGAAAUUUCUAUUGGACTT against Akr1c12 | inactive: 0.312
64 | CGCAGUGAUUAUGACCUCCTT against Thegl | active: -2.34
65 | CCCAAUCAGCAUUUGCUCUTT against H2-M10.3 | inactive: 0.104
66 | GGCAUCAAUCAUGAGCAUUTT against Chrna4 | inactive: 0.626

Row | Sequence | z-score
67 | GGAAGUCACCUUUUAUCCUTT against Chac1 | inactive: 1.59
68 | GGGCAGCAAAGAAUUAACUTT against Ptpmt1 | inactive: -0.619
69 | GCUAAUUACAGCUUCUCCCTT against Yars | inactive: 0.294
70 | CGGCAUGCUGUGGAAAAAGTT against Btrc | inactive: -0.869
71 | GGACAAGGCCAAGCUAUAATT against Cntnap2 | inactive: -1.47
72 | GGAAUCACCCAUCUUUUUATT against Mmgt1 | inactive: 1.11
73 | GGAUCCUAGUGAUGAUAAUTT against Styx | inactive: 0.629
74 | GGAAUGCAUGAUGAUGUCATT against Prl7a2 | inactive: -0.783
75 | GGUGCUCUCAAGUGGGAUUTT against Gm5114 | active: -2.15
76 | GGGAGAAACCAAGGAACUCTT against Wdr55 | inactive: 0.21
77 | GGGCUUCGAUGCUAUCAUCTT against Trmt9b | inactive: 1.31
78 | GGUACACUGGAUUUUCUGGTT against Slc4a1 | inactive: 0.13
79 | GCUAAAUUGUAUCCCUUCUTT against Pou2af1 | inactive: 0.082
80 | CCUACUAUAUAUGUGAUGCTT against Jrk | inactive: -0.742
81 | GGCUUAUCUAACCAAGUACTT against Prdm4 | inactive: -0.299
82 | GGGAUUUUACAGACUUAAGTT against Tm4sf1 | inactive: -0.219
83 | GGUAGAAGCCAAGAUGAGCTT against Abi3 | inactive: -1.08
84 | GGUCCACCUCAACAAGCUATT against Zfp536 | active: 2.57
85 | GCACUGGACCAAAGAACGGTT against Cercam | inactive: 1.14
86 | CAUUGUCAUUCUAGUUGCATT against Olfr1251 | inactive: 0.64
87 | GGAAGUGGCUUUUUAUCAGTT against Arhgap6 | active: 2.05
88 | GGAUCUGCACACCUAUGGGTT against Prok2 | inactive: -0.791

Row | Sequence | z-score
89 | GUAGUUAGGAACUCUUGCUTT against Thnsl2 | inactive: -0.086
90 | GGUGAUCCCGAAUGAUGAATT against Cpa2 | inactive: -0.718
91 | CCAUAGGAAUGCAUUUGAGTT against Arhgef7 | inactive: -0.741
92 | GGUGAACAUCACUUAUCCCTT against Plekhh1 | inactive: 0.0443
93 | GGAGCUGCUGUUAAUUCCATT against Col5a3 | inactive: 1.3
94 | GGAACAACUUGAUACCUCUTT against Trim44 | inactive: -0.89
95 | GGCUAUGUUGCACUUUCACTT against Vmn1r229 | inactive: 0.703
96 | CCUUUGUCCUUUUGUUGUGTT against Defb15 | inactive: 0.867
97 | CCUUGAAGUAUCAGGUGGATT against Sytl3 | inactive: 0.561
98 | GGAGAUUGACCUGGUCAACTT against Cav1 | inactive: 1.44
99 | GGGACAAUGCUGUCAUUGATT against Noxa1 | inactive: -0.222
100 | GGAGACGAGUCACAUCUCATT against Cables2 | inactive: -0.287
101 | GCCCGUUCCACUUUUGGAGTT against Nedd1 | active: 2.2
102 | GGGUCAGGAGGAAAAAAAATT against Reps1 | inactive: -1.56
103 | CCCUGUAAGGACCAAUAAATT against Dact1 | inactive: -0.000857
104 | GGAAAGGACUGGAAGAAUUTT against Mrpl47 | inactive: -0.693
105 | CCUAGUUGAUACCUGUGGUTT against Cd302 | inactive: -1.34
106 | GGAAAACAAGAAAGAUGAATT against Snupn | inactive: -1.05

A portion from further up, as a working copy:
Row | Sequence | z-score
91 | CCAUAGGAAUGCAUUUGAGTT against Arhgef7 | inactive: -0.741
92 | GGUGAACAUCACUUAUCCCTT against Plekhh1 | inactive: 0.0443
93 | GGAGCUGCUGUUAAUUCCATT against Col5a3 | inactive: 1.3
